# According to PMC8384837:
# This is one part of the list.
# Biological target: T1, PUM1 PUF domain R6-SWD R7-NPG N1043S + Y1044W + Q1047D + S1079N + N1080P + E1083G (Homo sapiens) (UniProt Q14671)
# T1 sequence: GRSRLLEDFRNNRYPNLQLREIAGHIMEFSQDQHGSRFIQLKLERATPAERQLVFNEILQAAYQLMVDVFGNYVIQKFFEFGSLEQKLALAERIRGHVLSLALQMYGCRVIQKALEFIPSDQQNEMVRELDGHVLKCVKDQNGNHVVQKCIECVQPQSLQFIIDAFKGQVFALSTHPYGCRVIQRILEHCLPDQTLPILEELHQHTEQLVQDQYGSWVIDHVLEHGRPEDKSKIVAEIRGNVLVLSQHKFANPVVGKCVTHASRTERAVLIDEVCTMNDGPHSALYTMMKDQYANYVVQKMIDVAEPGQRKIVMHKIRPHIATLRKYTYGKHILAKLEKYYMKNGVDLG
# Settings: yeast three-hybrid, YBZ-1, SC-Leu-His + 0.5 mM 3-AT, 4 days
row,Sequence,binding signal (log2 enrichment (interaction score))
1,GGCUAGAACUAGUGGAUCCCCCGGCGCCCGGCGGCUCGAGCCCGGGUAAGUUUAAAUAGUCUGCAUGCCGCCGGGCGCCAUGCCUGCAGGUCGACUCUAGAAAACAUG,-0.86
2,GGCUAGAACUAGUGGAUCCCCCGGCGCCCGGCGGCUCGAGCCCGGGUAAGUGUAAAUGGUCUGCAUGCCGCCGGGCGCCAUGCCUGCAGGUCGACUCUAGAAAACAUG,-1.82
3,GGCUAGAACUAGUGGAUCCCCCGGCGCCCGGCGGCUCGAGCCCGGGUAAGUGUACGAAGUCUGCAUGCCGCCGGGCGCCAUGCCUGCAGGUCGACUCUAGAAAACAUG,-0.98
4,GGCUAGAACUAGUGGAUCCCCCGGCGCCCGGCGGCUCGAGCCCGGGUAAGUUGAAAACGUCUGCAUGCCGCCGGGCGCCAUGCCUGCAGGUCGACUCUAGAAAACAUG,-0.5
5,GGCUAGAACUAGUGGAUCCCCCGGCGCCCGGCGGCUCGAGCCCGGGUAAGCAUCGGUAGUCUGCAUGCCGCCGGGCGCCAUGCCUGCAGGUCGACUCUAGAAAACAUG,0.45
6,GGCUAGAACUAGUGGAUCCCCCGGCGCCCGGCGGCUCGAGCCCGGGUAAGCUGGCGUAGUCUGCAUGCCGCCGGGCGCCAUGCCUGCAGGUCGACUCUAGAAAACAUG,-0.75
7,GGCUAGAACUAGUGGAUCCCCCGGCGCCCGGCGGCUCGAGCCCGGGUAAGUGGACGACGUCUGCAUGCCGCCGGGCGCCAUGCCUGCAGGUCGACUCUAGAAAACAUG,-0.35
8,GGCUAGAACUAGUGGAUCCCCCGGCGCCCGGCGGCUCGAGCCCGGGUAAGUGUAAAUAGUCUGCAUGCCGCCGGGCGCCAUGCCUGCAGGUCGACUCUAGAAAACAUG,-0.61
